Data published in the supplement of paper PMC6411743.
± gives the standard deviation of the averaged measurements. Only a part is listed here, and it is no random draw.

Amino acid sequences for entries named in this document (tags omitted). A change or cut given only in a name is not applied to a line headed by its entry.
UniProt P15151: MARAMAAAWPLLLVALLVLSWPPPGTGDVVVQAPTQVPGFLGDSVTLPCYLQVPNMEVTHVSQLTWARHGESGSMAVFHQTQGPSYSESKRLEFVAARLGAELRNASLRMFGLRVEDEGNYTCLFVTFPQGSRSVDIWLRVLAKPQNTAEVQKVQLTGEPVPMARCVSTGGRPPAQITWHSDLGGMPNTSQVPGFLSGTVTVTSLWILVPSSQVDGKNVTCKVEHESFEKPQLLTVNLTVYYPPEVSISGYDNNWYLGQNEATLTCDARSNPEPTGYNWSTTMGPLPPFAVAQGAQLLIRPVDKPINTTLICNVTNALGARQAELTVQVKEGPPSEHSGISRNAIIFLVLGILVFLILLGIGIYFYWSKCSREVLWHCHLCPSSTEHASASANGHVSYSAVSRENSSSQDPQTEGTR
UniProt Q9Y388: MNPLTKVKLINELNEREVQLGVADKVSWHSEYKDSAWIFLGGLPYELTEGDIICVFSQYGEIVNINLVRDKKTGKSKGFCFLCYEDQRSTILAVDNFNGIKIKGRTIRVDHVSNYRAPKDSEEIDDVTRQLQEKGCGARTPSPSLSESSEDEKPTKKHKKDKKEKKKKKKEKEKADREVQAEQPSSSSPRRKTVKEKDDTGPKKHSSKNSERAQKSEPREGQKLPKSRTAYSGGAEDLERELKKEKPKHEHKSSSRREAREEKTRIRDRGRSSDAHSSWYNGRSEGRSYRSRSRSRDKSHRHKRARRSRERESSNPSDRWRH
UniProt Q9NP79: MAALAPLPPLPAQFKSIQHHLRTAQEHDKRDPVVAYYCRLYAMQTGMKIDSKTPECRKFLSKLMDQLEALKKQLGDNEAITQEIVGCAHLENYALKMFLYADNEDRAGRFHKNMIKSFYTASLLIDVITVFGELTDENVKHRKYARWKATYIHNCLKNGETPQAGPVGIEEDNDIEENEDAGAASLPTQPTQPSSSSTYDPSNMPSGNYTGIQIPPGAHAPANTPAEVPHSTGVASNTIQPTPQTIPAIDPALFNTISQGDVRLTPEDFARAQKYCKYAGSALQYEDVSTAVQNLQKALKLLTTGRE
UniProt Q15345: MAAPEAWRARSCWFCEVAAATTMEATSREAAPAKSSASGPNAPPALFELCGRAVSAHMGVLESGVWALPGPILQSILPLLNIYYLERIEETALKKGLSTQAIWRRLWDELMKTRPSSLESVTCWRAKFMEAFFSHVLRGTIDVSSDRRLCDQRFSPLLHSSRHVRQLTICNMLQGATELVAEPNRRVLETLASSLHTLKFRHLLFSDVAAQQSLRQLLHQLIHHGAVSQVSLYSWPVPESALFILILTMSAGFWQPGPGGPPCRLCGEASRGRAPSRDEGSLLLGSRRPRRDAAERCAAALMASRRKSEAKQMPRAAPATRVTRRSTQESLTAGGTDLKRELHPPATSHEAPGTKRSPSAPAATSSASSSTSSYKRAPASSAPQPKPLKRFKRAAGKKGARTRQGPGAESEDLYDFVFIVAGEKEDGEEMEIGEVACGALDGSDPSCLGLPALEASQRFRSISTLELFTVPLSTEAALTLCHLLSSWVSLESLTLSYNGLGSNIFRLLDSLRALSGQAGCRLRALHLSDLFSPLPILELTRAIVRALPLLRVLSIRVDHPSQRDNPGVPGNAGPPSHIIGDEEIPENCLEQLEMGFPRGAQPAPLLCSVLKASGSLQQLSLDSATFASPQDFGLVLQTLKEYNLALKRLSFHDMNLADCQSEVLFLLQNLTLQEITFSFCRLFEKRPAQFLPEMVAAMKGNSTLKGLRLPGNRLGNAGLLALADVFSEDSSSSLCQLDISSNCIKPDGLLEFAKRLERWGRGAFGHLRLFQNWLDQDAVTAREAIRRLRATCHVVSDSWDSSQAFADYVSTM
UniProt P81877: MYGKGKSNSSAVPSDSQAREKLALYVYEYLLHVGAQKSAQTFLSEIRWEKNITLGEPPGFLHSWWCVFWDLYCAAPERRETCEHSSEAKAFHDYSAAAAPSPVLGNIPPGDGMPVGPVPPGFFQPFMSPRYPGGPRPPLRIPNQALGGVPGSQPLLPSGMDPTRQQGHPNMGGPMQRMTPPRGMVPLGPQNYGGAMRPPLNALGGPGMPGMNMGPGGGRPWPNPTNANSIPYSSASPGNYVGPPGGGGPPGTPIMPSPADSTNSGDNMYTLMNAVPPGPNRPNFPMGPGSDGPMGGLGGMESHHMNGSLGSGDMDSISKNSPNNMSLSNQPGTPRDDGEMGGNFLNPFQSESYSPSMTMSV
UniProt Q9Y2Y9: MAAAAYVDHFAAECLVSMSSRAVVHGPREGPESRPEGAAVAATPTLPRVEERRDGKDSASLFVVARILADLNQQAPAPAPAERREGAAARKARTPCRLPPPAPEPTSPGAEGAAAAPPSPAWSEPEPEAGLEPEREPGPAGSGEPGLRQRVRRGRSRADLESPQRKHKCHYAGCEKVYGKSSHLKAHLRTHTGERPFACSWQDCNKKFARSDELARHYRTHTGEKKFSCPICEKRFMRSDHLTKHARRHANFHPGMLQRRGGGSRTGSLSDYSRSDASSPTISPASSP
UniProt Q9Y4X4: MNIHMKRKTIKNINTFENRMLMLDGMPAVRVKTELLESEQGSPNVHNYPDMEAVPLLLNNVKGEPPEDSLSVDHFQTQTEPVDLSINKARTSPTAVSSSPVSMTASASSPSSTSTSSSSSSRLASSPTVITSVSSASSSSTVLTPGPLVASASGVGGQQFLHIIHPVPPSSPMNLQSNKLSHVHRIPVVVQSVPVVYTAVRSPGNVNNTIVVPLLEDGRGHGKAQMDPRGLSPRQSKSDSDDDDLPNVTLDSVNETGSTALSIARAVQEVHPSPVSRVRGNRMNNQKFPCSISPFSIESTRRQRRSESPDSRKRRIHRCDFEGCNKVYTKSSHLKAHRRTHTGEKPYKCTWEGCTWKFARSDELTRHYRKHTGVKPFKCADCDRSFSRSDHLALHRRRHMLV
UniProt Q9P0P8: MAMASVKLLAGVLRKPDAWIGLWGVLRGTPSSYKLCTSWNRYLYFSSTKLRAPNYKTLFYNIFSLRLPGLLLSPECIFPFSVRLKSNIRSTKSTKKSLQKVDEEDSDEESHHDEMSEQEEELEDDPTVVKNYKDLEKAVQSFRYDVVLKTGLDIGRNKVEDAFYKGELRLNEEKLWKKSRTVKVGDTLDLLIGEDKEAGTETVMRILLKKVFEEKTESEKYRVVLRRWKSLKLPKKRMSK
UniProt P39656: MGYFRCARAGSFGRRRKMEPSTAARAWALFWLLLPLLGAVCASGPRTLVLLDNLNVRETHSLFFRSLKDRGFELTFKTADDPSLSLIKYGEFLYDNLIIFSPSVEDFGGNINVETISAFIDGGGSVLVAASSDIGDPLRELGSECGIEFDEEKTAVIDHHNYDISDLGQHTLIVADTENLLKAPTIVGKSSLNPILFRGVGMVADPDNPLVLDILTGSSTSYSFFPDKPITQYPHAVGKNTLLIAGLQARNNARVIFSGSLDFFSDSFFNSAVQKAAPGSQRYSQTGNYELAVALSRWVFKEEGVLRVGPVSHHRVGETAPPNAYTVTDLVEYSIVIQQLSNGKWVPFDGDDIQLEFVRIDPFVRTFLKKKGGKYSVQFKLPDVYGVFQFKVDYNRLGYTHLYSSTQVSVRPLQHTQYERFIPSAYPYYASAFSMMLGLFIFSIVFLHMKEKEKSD
UniProt Q8IZQ5, whole entry, looked up: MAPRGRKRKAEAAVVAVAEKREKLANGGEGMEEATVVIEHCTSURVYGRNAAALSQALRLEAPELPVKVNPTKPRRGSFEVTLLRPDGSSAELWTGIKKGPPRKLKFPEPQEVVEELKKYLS
UniProt Q70IA6: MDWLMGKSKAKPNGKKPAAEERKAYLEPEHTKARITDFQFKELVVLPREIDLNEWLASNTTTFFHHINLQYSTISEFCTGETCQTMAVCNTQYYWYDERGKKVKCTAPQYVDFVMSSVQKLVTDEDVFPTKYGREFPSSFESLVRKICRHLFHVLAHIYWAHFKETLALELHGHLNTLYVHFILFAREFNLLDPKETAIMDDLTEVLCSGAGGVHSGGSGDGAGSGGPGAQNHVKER
UniProt P55198: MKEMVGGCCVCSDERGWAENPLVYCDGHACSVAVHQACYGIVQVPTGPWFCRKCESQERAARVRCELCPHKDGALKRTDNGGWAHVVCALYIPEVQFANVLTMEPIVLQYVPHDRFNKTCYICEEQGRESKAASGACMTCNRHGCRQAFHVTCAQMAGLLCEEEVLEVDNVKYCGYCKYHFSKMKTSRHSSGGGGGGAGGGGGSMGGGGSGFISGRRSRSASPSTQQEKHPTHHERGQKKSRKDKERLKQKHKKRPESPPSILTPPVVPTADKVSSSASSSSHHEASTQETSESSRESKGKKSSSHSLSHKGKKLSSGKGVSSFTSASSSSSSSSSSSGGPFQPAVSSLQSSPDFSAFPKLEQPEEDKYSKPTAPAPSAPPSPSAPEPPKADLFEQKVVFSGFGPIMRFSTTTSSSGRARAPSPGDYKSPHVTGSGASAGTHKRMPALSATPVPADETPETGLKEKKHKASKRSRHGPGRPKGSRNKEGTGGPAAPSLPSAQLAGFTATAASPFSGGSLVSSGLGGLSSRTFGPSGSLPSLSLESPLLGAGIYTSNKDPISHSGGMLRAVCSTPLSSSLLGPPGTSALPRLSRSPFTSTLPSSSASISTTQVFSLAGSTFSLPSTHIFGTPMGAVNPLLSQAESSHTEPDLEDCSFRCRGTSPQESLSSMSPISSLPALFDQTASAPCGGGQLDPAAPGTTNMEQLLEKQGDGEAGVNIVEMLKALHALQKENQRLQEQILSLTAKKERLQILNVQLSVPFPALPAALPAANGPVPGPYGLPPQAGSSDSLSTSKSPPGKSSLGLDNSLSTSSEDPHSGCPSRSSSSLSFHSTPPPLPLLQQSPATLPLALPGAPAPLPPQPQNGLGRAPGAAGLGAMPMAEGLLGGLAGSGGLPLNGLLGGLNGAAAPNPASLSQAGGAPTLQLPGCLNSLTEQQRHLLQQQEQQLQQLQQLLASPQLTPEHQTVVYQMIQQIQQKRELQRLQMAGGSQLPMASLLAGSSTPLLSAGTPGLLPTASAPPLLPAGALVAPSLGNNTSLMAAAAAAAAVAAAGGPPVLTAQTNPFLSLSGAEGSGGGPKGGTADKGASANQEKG
UniProt Q13017, whole entry: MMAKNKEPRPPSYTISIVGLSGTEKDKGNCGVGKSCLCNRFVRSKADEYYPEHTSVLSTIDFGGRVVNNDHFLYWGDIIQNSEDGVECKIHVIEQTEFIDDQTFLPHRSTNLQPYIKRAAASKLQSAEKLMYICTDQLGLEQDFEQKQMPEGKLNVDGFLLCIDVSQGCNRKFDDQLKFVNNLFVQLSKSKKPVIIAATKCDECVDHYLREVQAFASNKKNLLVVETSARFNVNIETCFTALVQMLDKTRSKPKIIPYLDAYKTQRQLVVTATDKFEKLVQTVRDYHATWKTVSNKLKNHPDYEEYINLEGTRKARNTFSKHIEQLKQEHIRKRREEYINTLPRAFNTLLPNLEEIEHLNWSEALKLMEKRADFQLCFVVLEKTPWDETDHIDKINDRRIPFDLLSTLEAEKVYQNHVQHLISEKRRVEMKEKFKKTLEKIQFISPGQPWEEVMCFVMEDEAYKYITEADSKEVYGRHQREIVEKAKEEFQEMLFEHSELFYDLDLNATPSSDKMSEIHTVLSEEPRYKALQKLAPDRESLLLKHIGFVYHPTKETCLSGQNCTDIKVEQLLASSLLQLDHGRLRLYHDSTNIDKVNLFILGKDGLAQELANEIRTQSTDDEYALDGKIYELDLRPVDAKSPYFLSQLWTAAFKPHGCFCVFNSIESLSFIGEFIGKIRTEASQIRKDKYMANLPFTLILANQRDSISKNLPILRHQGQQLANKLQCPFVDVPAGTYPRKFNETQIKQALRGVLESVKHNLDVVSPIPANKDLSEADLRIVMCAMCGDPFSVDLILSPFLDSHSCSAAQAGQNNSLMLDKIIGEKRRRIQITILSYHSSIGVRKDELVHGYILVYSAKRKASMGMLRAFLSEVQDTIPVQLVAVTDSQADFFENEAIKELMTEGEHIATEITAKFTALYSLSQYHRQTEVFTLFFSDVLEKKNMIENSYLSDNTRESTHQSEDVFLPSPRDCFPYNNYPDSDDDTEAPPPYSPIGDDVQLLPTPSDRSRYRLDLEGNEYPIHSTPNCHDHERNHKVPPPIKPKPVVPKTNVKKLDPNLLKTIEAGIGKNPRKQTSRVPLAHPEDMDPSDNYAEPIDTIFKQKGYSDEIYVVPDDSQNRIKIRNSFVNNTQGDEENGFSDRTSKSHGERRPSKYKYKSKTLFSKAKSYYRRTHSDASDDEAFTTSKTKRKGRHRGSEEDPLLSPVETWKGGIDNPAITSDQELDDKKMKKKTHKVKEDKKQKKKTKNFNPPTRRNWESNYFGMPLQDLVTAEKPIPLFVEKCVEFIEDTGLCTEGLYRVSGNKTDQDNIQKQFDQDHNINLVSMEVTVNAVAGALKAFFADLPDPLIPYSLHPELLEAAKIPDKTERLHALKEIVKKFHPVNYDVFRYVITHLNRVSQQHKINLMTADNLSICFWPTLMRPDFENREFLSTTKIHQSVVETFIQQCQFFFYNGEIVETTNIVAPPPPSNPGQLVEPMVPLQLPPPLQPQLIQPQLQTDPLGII

What follows are targets tested with Nc1ncnc2c1ncn2[C@@H]1O[C@H](COP(=O)(O)OP(=O)(O)OP(=O)(O)O)[C@@H](O)[C@H]1O [adenosine triphosphate] (assay: NP40-soluble protein abundance relative to vehicle (solubility fold change) (ratio); higher = more soluble protein in presence of ATP). Conditions: concentration: 4mM.
In short: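 Eight concentrations, 0.1 to 10 mM, were tested on Jurkat crude lysate for 10 min at room temperature and then 3 min at 37 °C, in three independent experiments. The lysate was solubilised with 0.8% NP40 and benzonase, ultracentrifuged, and the supernatant TMT-labelled for LC-MS/MS. Each value is the fold change against the detergent-processed vehicle in its own replicate, from vsn-normalised intensities.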

Target	NP40-soluble protein abundance
A0A087WZ62	0.968 ± 0.019
A0A087WVF4|O14646 and related entries (UniProt O14646)	1.09 ± 0.05
A0A0B4J294|H3BP13 and related entries (UniProt Q9UL33)	0.964 ± 0.04
A0A087WY58|P51956 and related entries (UniProt P51956)	0.999 ± 0.067
A0A0A0MSA9|A0A0C4DG49|P15151 and related entries (UniProt P15151)	1.01 ± 0.0016
A0A087X243|P09211 (UniProt P09211)	0.899 ± 0.021
A0A0A0MRN1|Q5T8I9 (UniProt Q5T8I9)	1.029 ± 0.0099
A0A087X1I8|Q7Z3E5 and related entries (UniProt Q7Z3E5)	0.987 ± 0.072
A0A087WUM0|A0A087WYV9|A0A087X1F5 (UniProt P57105)	0.942 ± 0.092
A0A087WUI1|Q9Y388 (UniProt Q9Y388)	1.29 ± 0.086
A0A087WUH0|P28715 (UniProt P28715)	0.996 ± 0.027
A0A087WY55|Q9NP79 (UniProt Q9NP79)	0.965 ± 0.07
A0A087WVB5|Q75MD7 and related entries (UniProt Q8WXX7)	1.11 ± 0.12
A0A087WTU1|A0A087X0S7|A0A0B4J2G4|A0A0C4DH00|Q15345 and related entries (UniProt Q15345)	1.13 ± 0.088
A0A087WXI0 (UniProt Q7Z6P3)	0.987 ± 0.062
A0A087X159|P81877 and related entries (UniProt P81877)	1.09 ± 0.057
A0A087X1K6|Q9Y2Y9 (UniProt Q9Y2Y9)	0.89 ± 0.071
A0A0C4DFX9|Q9H3P2 (UniProt Q9H3P2)	0.943 ± 0.043

Target	NP40-soluble protein abundance
A0A075B7B5|A2RUF3 and related entries (UniProt O75044)	1.05 ± 0.04
A0A0A0MRZ4|E7EMV7 and related entries (UniProt Q15025)	0.971 ± 0.01
A0A0A0MRU8|Q9Y4X4 (UniProt Q9Y4X4)	1.04 ± 0.083
A0A087WUD1 (UniProt Q6DD87)	0.969 ± 0.012
A0A0D9SEI0|Q9P0P8 (UniProt Q9P0P8)	0.955 ± 0.11
A0A0C4DGS1|P39656 (UniProt P39656)	0.985 ± 0.081
A0A0A0MTB0|A0A0J9YYI4|D6RHG7 and related entries (UniProt Q86VE9)	0.955 ± 0.059
A0A087WYT3|Q15185 (UniProt Q15185)	0.886 ± 0.064
A0A087WYP2|Q8IZQ5 (UniProt Q8IZQ5)	1.12 ± 0.026
A0A0A0MQU4|Q96I15 (UniProt Q96I15)	0.992 ± 0.052
A0A087WVS8|Q70IA6 and related entries (UniProt Q70IA6)	0.986 ± 0.03
A0A087X2I1|P62333 (UniProt P62333)	0.867 ± 0.041
A0A087WW39|P55198 (UniProt P55198)	1.29 ± 0.062
A0A0A0MSK6|Q13017 and related entries (UniProt Q13017)	1.03 ± 0.053
A0A0B4J2A0|Q9UHJ6 (UniProt Q9UHJ6)	0.971 ± 0.087
A0A0A0MRW1|Q5T593 and related entries (UniProt Q8IW50)	0.818 ± 0.1
A0A0A0MS18|C9JYJ0 and related entries (UniProt O15315)	1.02 ± 0.09
A0A087WZ97|A0A087WZK6|A0A087X2C2|Q5T7M9 (UniProt Q5T7M9)	1.04 ± 0.03

Same assay, conditions: concentration: 6mM

Target	NP40-soluble protein abundance
A0A087WZ62	0.994 ± 0.073
A0A087WVF4|O14646 and related entries (UniProt O14646)	1.14 ± 0.032
A0A0B4J294|H3BP13 and related entries (UniProt Q9UL33)	0.979 ± 0.073
A0A087WY58|P51956 and related entries (UniProt P51956)	0.956 ± 0.059
A0A0A0MSA9|A0A0C4DG49|P15151 and related entries (UniProt P15151)	0.9909 ± 0.0035
A0A087X243|P09211 (UniProt P09211)	0.887 ± 0.052
A0A0A0MRN1|Q5T8I9 (UniProt Q5T8I9)	0.934 ± 0.012
A0A087X1I8|Q7Z3E5 and related entries (UniProt Q7Z3E5)	0.935 ± 0.097
A0A087WUM0|A0A087WYV9|A0A087X1F5 (UniProt P57105)	0.937 ± 0.019
A0A087WUI1|Q9Y388 (UniProt Q9Y388)	1.33 ± 0.065
A0A087WUH0|P28715 (UniProt P28715)	1.02 ± 0.048
A0A087WY55|Q9NP79 (UniProt Q9NP79)	0.908 ± 0.056
A0A087WVB5|Q75MD7 and related entries (UniProt Q8WXX7)	1.38 ± 0.094
A0A087WTU1|A0A087X0S7|A0A0B4J2G4|A0A0C4DH00|Q15345 and related entries (UniProt Q15345)	1.15 ± 0.12
A0A087WXI0 (UniProt Q7Z6P3)	0.99 ± 0.033
A0A087X159|P81877 and related entries (UniProt P81877)	1.17 ± 0.19
A0A087X1K6|Q9Y2Y9 (UniProt Q9Y2Y9)	0.91 ± 0.086
A0A0C4DFX9|Q9H3P2 (UniProt Q9H3P2)	0.964 ± 0.053

Target	NP40-soluble protein abundance
A0A075B7B5|A2RUF3 and related entries (UniProt O75044)	1.05 ± 0.028
A0A0A0MRZ4|E7EMV7 and related entries (UniProt Q15025)	0.981 ± 0.086
A0A0A0MRU8|Q9Y4X4 (UniProt Q9Y4X4)	1.15 ± 0.1
A0A087WUD1 (UniProt Q6DD87)	0.956 ± 0.042
A0A0D9SEI0|Q9P0P8 (UniProt Q9P0P8)	0.965 ± 0.03
A0A0C4DGS1|P39656 (UniProt P39656)	0.92 ± 0.12
A0A0A0MTB0|A0A0J9YYI4|D6RHG7 and related entries (UniProt Q86VE9)	0.972 ± 0.11
A0A087WYT3|Q15185 (UniProt Q15185)	0.922 ± 0.02
A0A087WYP2|Q8IZQ5 (UniProt Q8IZQ5)	1.08 ± 0.039
A0A0A0MQU4|Q96I15 (UniProt Q96I15)	0.972 ± 0.024
A0A087WVS8|Q70IA6 and related entries (UniProt Q70IA6)	0.972 ± 0.068
A0A087X2I1|P62333 (UniProt P62333)	0.84 ± 0.052
A0A087WW39|P55198 (UniProt P55198)	1.28 ± 0.062
A0A0A0MSK6|Q13017 and related entries (UniProt Q13017)	1.04 ± 0.13
A0A0B4J2A0|Q9UHJ6 (UniProt Q9UHJ6)	0.992 ± 0.057
A0A0A0MRW1|Q5T593 and related entries (UniProt Q8IW50)	0.899 ± 0.16
A0A0A0MS18|C9JYJ0 and related entries (UniProt O15315)	0.978 ± 0.15
A0A087WZ97|A0A087WZK6|A0A087X2C2|Q5T7M9 (UniProt Q5T7M9)	0.981 ± 0.038
